Data: patent US7365084B2, “Cycloalkyl-substituted amino acid derivatives, processes for their preparation and their use as pharmaceuticals” (SanoFi-Aventis Deutschland GmbH, priority 2003, dated 2008)
pEC50: −log10 of the molar value. Some entries share one result that the patent states for a list of compounds.

The compounds below were run against T1, human PPARalpha receptor (GR-GAL4-humanPPARalpha-LBD fusion protein) (Homo sapiens, UniProt Q07869) (assay: Cellular PPARalpha assay (stably transfected HEK luciferase reporter cell line)). Details: range stated in text for Examples 1 to 50; units given in the value.
T1 construct: amino acids S167-Y468; expressed in transfected cells; host or cells: HEK (human embryo kidney) cells, stably transfected with pcDNA3 carrying the fusion construct
T1 sequence (Q07869 167-468): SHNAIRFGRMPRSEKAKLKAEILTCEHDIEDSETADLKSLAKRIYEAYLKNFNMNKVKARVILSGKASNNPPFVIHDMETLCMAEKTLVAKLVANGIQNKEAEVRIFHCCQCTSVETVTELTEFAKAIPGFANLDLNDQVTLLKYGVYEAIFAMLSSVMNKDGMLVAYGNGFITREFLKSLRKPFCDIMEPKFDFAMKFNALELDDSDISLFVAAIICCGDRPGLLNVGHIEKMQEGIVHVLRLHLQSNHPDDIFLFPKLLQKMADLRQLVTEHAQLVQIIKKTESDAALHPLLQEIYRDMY
Type: cell-based
Method: (A) Determination of EC50 Values of PPAR Agonists in the Cellular PPARalpha Assay
The potency of substances which bind to human PPAR[…] and activate in an agonistic manner is analyzed using a stably transfected HEK cell line (HEK=human embryo kidney) which is referred to here as PPARalpha reporter cell line. It contains two genetic elements, a luciferase reporter element (pΔM-GAL4-Luc-Zeo) and a PPARalpha fusion protein (GR-GAL4-humanPPARα-LBD) which mediates expression of the luciferase reporter element depending on a PPARalpha ligand. The stably and constitutively expressed fusion protein GR-GAL4-humanPPARalpha-LBD binds in the cell nucleus of the PPARalpha reporter cell line via the GAL4 protein portion to the GAL4 DNA binding motifs 5′-upstream of the luciferase reporter element which is integrated in the genome of the cell line. There is only little expression of the luciferase reporter gene without addition of a PPARalpha ligand if fatty acid-depleted fetal calf serum (cs-FCS) is used in the assay. PPARα ligands bind and activate the PPARα fusion protein and thereby bring about expression of the luciferase reporter gene. The luciferase which is formed can be detected by means of chemi-luminescence via an appropriate substrate.
The PPARalpha reporter cell line was prepared in 2 stages. Firstly, the luciferase reporter element was constructed and stably transfected into HEK cells. For this purpose, five binding sites of the yeast transcription factor GAL4 (each 5′-CGGAGTACTGTCCTCCGAG-3′) (SEQ ID NO:1) were cloned in 5′-upstream of a 68 bp-long minimal MMTV promoter (Genbank Accession # V01175). The minimal MMTV promoter section contains a CCAAT box and a TATA element in order to enable efficient transcription by RNA polymerase II. The cloning and sequencing of the GAL4-MMTV construct took place in analogy to the description of Sambrook J. et. al. (Molecular cloning, Cold Spring Harbor Laboratory Press, 1989). Then the complete Photinus pyralis gene (Genbank Accession # M15077) was cloned in 3′-downstream of the GAL4-MMTV element. After sequencing, the luceriferase reporter element consisting of five GAL4 binding sites, MMTV promoter and luciferase gene was recloned into a plasmid which confers zeocin resistance in order to obtain the plasmid pΔM-GAL4-Luc-Zeo. This vector was transfected into HEK cells in accordance with the statements in Ausubel, F. M. et al. (Current protocols in molecular biology, Vol. 1-3, John Wiley & Sons, Inc., 1995). […] In a second step, the PPARalpha fusion protein (GR-GAL4-humanPPARalpha-LBD) was introduced into the stable cell clone described. For this purpose, initially the cDNA coding for the N-terminal 76 amino acids of the glucocorticoid receptor (Genbank Accession # P04150) was linked to the cDNA section coding for amino acids 1-147 of the yeast transcription factor GAL4 (Genbank Accession # P04386). The cDNA of the ligand-binding domain of the human PPARalpha receptor (amino acids S167-Y468; Genbank Accession # S74349) was cloned in at the 3′-end of this GR-GAL4 construct. The fusion construct prepared in this way (GR-GAL4-humanPPARalpha-LBD) was recloned into the plasmid pcDNA3 (from Invitrogen) in order to enable constitutive expression therein by the cytomegalovirus promoter. This plasmid was linearized with a restriction endonuclease and stably transfected into the previously described cell clone containing the luciferase reporter element. The finished PPARalpha reporter cell line which contains a luciferase reporter element and constitutively expresses the PPARalpha fusion protein (GR-GAL4-human PPARalpha-LBD) was isolated by selection with zeocin (0.5 mg/ml) and G418 (0.5 mg/ml).
The activity of PPARalpha agonists is determined in a 3-day assay which is described below: […]

Q: `Cc1ccc(-c2nc(COC3CCCC(C(=O)NC(C)(C)C(=O)O)C3)c(C)o2)cc1` (racemic) [Example 5, 2-Methyl-2-{[(1R,3S)/(1S, 3R)-3-(5-methyl-2-p-tolyloxazol-4-ylmethoxy)-cyclohexanecarbonyl]amino}propionic acid] was tested. Which pEC50 did it give?
A: ≤ 9.00

Q: With `Cc1ccc(-c2nc(CO[C@@H]3CCC[C@H](C(=O)NC4(C(=O)O)CCCCC4)C3)c(C)o2)cc1` (racemic) [Example 24, 1-{[(1R,3S)/(1S,3R)-3-(5-Methyl-2-p-tolyloxazol-4-ylmethoxy)cyclohexanecarbonyl]amino}cyclohexanecarboxylic acid] as the compound, how does the pEC50 read?
A: ≤ 9.00

Q: How did the pEC50 turn out when `Cc1ccc(-c2nc(COC3CCCC(C(=O)NC4(C(=O)O)CCCC4)C3)c(C)o2)cc1` (racemic) [Example 25, 1-{[(1R,3S)/(1S,3R)-3-(5-Methyl-2-p-tolyloxazol-4-ylmethoxy)cyclohexanecarbonyl]amino}cyclopentanecarboxylic acid] was run?
A: ≤ 9.00

Q: With `COc1cccc(-c2nc(COC3CCCC(C(=O)NC4(C(=O)O)CCCC4)C3)c(C)o2)c1` (racemic) [Example 26, 1-({(1R,3S)/(1S,3R)-3-[2-(3-Methoxyphenyl)-5-methyloxazol-4-ylmethoxy]-cyclohexanecarbonyl}amino)cyclopentanecarboxylic acid] as the compound, how does the pEC50 read?
A: ≤ 9.00

Q: How did the pEC50 turn out when `Cc1oc(-c2cccc(C(F)(F)F)c2)nc1COC1CCCC(C(=O)NC2(C(=O)O)CCCC2)C1` (racemic) [Example 27, 1-({(1R,3S)/(1S,3R)-3-[5-Methyl-2-(3-trifluoromethylphenyl)oxazol-4-ylmethoxy]cyclohexanecarbonyl}amino)cyclopentanecarboxylic acid] was run?
A: ≤ 9.00

Q: `CCc1oc(-c2ccc(C)cc2)nc1COC1CCCC(C(=O)NC2(C(=O)O)CCCC2)C1` (racemic) [Example 31, 1-{[(1R,3S)/(1S,3R)-3-(5-Ethyl-2-p-tolyloxazol-4-ylmethoxy)cyclohexanecarbonyl]amino}cyclopentanecarboxylic acid] was tested. Which pEC50 did it give?
A: ≤ 9.00

Q: `COc1cc(OC)cc(-c2nc(COC3CCCC(C(=O)NC4(C(=O)O)CCCC4)C3)c(C)o2)c1` (racemic) [Example 32, 1-{[(1R,3S)/(1S,3R)-3-[2-(3,5-Dimethoxyphenyl)-5-methyloxazol-4-ylmethoxy]cyclohexanecarbonyl}amino)cyclopentanecarboxylic acid] was tested. Which pEC50 did it give?
A: ≤ 9.00

Q: With `CC(C)c1oc(-c2cccc(C(F)(F)F)c2)nc1COC1CCCC(C(=O)NC2(C(=O)O)CCCC2)C1` (racemic) [Example 33, 1-{[(1R,3S)/(1S,3R)-({3-[5-Isopropyl-2-(3-trifluoromethylphenyl)oxazol-4-ylmethoxy]cyclohexanecarbonyl}amino)cyclopentanecarboxylic acid] as the compound, how does the pEC50 read?
A: ≤ 9.00

Q: With `CCc1oc(-c2cccc(C(F)(F)F)c2)nc1COC1CCCC(C(=O)NC2(C(=O)O)CCCC2)C1` (racemic) [Example 34, 1-{[(1R,3S)/(1S,3R)-({3-[5-Ethyl-2-(3-trifluoromethylphenyl)oxazol-4-ylmethoxy]cyclohexanecarbonyl}amino)cyclopentanecarboxylic acid] as the compound, how does the pEC50 read?
A: ≤ 9.00

Q: With `Cc1ccc(-c2nc(COC3CCCC(C(=O)NC4(C(=O)O)CCCC4)C3)c(C(C)C)o2)cc1C` (racemic) [Example 35, 1-{[(1R,3S)/(1S,3R)-({3-[2-(3,4-Dimethylphenyl)-5-isopropyloxazol-4-ylmethoxy]cyclohexanecarbonyl}amino)cyclopentanecarboxylic acid] as the compound, how does the pEC50 read?
A: ≤ 9.00

Q: How did the pEC50 turn out when `COc1ccc(-c2nc(COC3CCCC(C(=O)NC4(C(=O)O)CCCC4)C3)c(C)o2)cc1` (racemic) [Example 36, 1-{[(1R,3S)/(1S,3R)-({3-[2-(4-Methoxyphenyl)-5-methyloxazol-4-ylmethoxy]-cyclohexanecarbonyl}amino)cyclopentanecarboxylic acid] was run?
A: ≤ 9.00

Q: With `CCc1oc(-c2ccc3ccccc3c2)nc1COC1CCCC(C(=O)NC2(C(=O)O)CCCC2)C1` (racemic) [Example 37, 1-{[(1R,3S)/(1S,3R)-{[3-(5-Ethyl-2-naphthalen-2-yloxazol-4-ylmethoxy)cyclohexanecarbonyl]amino}cyclopentanecarboxylic acid] as the compound, how does the pEC50 read?
A: ≤ 9.00

Q: `CCc1oc(-c2cccc(OC)c2)nc1COC1CCCC(C(=O)NC2(C(=O)O)CCCC2)C1` (racemic) [Example 38, 1-{[(1R,3S)/(1S,3R)-({3-[5-Ethyl-2-(3-methoxyphenyl)oxazol-4-ylmethoxy]cyclohexanecarbonyl}amino)cyclopentanecarboxylic acid] was tested. Which pEC50 did it give?
A: ≤ 9.00

Q: How did the pEC50 turn out when `Cc1oc(-c2ccc(C(C)C)cc2)nc1COC1CCCC(C(=O)NC2(C(=O)O)CCCC2)C1` (racemic) [Example 39, 1-{[(1R,3S)/(1S,3R)-({3-[2-(4-Isopropylphenyl)-5-methyloxazol-4-ylmethoxy]cyclohexanecarbonyl}amino)cyclolentanecarboxylic acid] was run?
A: ≤ 9.00

Q: With `CCc1oc(-c2ccc(C(C)C)cc2)nc1COC1CCCC(C(=O)NC2(C(=O)O)CCCC2)C1` (racemic) [Example 40, 1-{[(1R,3S)/(1S,3R)-({3-[5-Ethyl-2-(4-isopropylphenyl)oxazol-4-ylmethoxy]cyclohexanecarbonyl}amino)cyclopentanecarboxylic acid] as the compound, how does the pEC50 read?
A: ≤ 9.00

Q: With `Cc1ccc(-c2nc(COC3CCCC(C(=O)N[C@H](C(=O)O)C(C)C)C3)c(C)o2)cc1` (stereo partly drawn) [Example 1, (S)-3-Methyl-2-{[(1R,3S)/(1S,3R)-3-(5-methyl-2-p-tolyloxazol-4-ylmethoxy)-cyclohexanecarbonyl]amino}butyric acid] as the compound, how does the pEC50 read?
A: ≤ 9.00

Q: With `Cc1ccc(-c2nc(COC3CCCC(C(=O)N[C@@H](CC(C)C)C(=O)O)C3)c(C)o2)cc1` (stereo partly drawn) [Example 2, (S)-4-Methyl-2-{[(1R,3S)/(1S,3R)-3-(5-methyl-2-p-tolyloxazol-4-ylmethoxy)-cyclohexanecarbonyl]amino}pentanoic acid] as the compound, how does the pEC50 read?
A: ≤ 9.00

Q: With `Cc1ccc(-c2nc(COC3CCCC(C(=O)N[C@@H](C)C(=O)O)C3)c(C)o2)cc1` (stereo partly drawn) [Example 3, (S)-2-{[(1R,3S)/(1S,3R)-3-(5-Methyl-2-p-tolyloxazol-4-ylmethoxy)cyclohexanecarbonyl]amino}propionic acid] as the compound, how does the pEC50 read?
A: ≤ 9.00

Q: `Cc1ccc(-c2nc(COC3CCCC(C(=O)N[C@@H](Cc4ccccc4)C(=O)O)C3)c(C)o2)cc1` (stereo partly shown) [Example 4] was tested. Which pEC50 did it give?
A: ≤ 9.00

Q: How did the pEC50 turn out when `Cc1ccc(-c2nc(COC3CCCC(C(=O)N[C@@H](C(=O)O)C(C)C)C3)c(C)o2)cc1` (stereo partly drawn) [Example 6, (R)-3-Methyl-2-{[(1R,3S)/(1S,3R)-3-(5-methyl-2-p-tolyloxazol-4-ylmethoxy)-cyclohexanecarbonyl]amino}butyric acid] was run?
A: ≤ 9.00

Q: How did the pEC50 turn out when `COc1cccc(-c2nc(COC3CCCC(C(=O)N4CCC[C@H]4C(=O)O)C3)c(C)o2)c1` (stereo partly drawn) [Example 7, (S)-1-{(1R,3S)/(1S,3R)-3-[2-(3-Methoxyphenyl)-5-methyloxazol-4-ylmethoxy]cyclohexanecarbonyl}pyrrolidine-2-carboxylic acid] was run?
A: ≤ 9.00

Q: How did the pEC50 turn out when `Cc1ccc(-c2nc(COC3CCCC(C(=O)N4CCC[C@H]4C(=O)O)C3)c(C)o2)cc1` (stereo partly drawn) [Example 8, (S)-1-[(1R,3S)/(1S,3R)-3-(5-Methyl-2-p-tolyloxazol-4-ylmethoxy)-cyclohexanecarbonyl]pyrrolidine-2-carboxylic acid] was run?
A: ≤ 9.00
